Results taken from PMC10810786.

What was measured:
[1] = biological target: recombinant TbEIF4E6 (GST tag removed) (Trypanosoma brucei); assay: crystal structure; complex at 12 mg/mL in 20 mM Tris-HCl, 150 mM NaCl, 2 mM DTT, pH 8.0, preincubated with cap-4; hanging drop at 18 °C; 1.90 Å; both purified
[2] = biological target: recombinant TbEIF4E6 (GST tag removed) (Trypanosoma brucei); assay: nanoDSF (thermal unfolding); purified protein and purified complex in 20 mM Tris-HCl, 150 mM NaCl, 2 mM DTT, pH 8.0; linear ramp from 20 to 80 °C; with and without cap-4; both purified

B1: TbEIF4G5_79-116 peptide (peptide)
peptide: SSYPEDCVYEIAEFTRLQNTKCLPPKGILQFATDLWKE
binding [1]: binds | binding [2]: binds

These are yes or no findings as the source states them, for the method shown. A result given as binding can be weak or reduced; the word gives no strength.
